Data as given in PubChem BioAssay AID504786 (Drosophila RNAi Screening Center, 2011).

- Aim: 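Fly genes required for HIF-dependent transcription when hypoxia is mimicked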 (primary screen)
- Cells: Drosophila S2 cells with a stable HIF luciferase reporter
- Reagents: long dsRNA against Drosophila genes, about 0.2 µg dsRNA per well of a 384-well plate
- Time to read-out: three days of knock-down, then 20 h of DFO before reading
- Treatment: desferrioxamine (DFO) at 100 µM, an iron chelator that mimics hypoxia, for 20 h
- Detection: 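Firefly luciferase driven by the mouse ldh-a hypoxia-response element, measured after 20 h of 100 µM DFO; z-scores per plate, higher means more signal lost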
- Direction: z-score: higher = stronger loss of HIF reporter signal
In all, the deposit lists about 21,000 reagents; this is a random part of those that have a named target and a result. 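Primary screen; positive scores mean lost reporter signal, so the sign may be inverted from the usual convention.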 The numbers tell different reagents against one gene apart. Further read-outs or replicates are left out here.

Which result is listed for l(1)G0020 (lethal (1) G0020)?
z-score, replicate 1: 0

What did the screen give for Phf5a (PHD finger protein 5a)?
z-score, replicate 1: 0.9

What did the screen give for Acph-1 (Acid phosphatase 1)?
z-score, replicate 1: -0.3

Which result is listed for CAH8 (Carbonic anhydrase 8)?
z-score, replicate 1: -0.6

What did the screen give for CG4000?
z-score, replicate 1: -0.5

For CG13607, how do the results read?
z-score, replicate 1: -0.2

What did the screen give for CG45263 #1?
z-score, replicate 1: -0.3

For CG45263 #2, what does the deposit list?
z-score, replicate 1: -0.3

What did the screen give for CG45263 #3?
z-score, replicate 1: -0.4

How did the screen score CG45263 #4?
z-score, replicate 1: -0.6

With CG12857, what was measured?
z-score, replicate 1: -0.3

What did the screen give for bt (bent) #1?
z-score, replicate 1: -0.2

For bt (bent) #2, how do the results read?
z-score, replicate 1: -0.2

With CG11693, how do the results read?
z-score, replicate 1: -0.2

For thoc6, what was measured?
z-score, replicate 1: -0.3

What is on record for CG15096?
z-score, replicate 1: -0.2

Laid out differently: results already given.
{"gene": "bt (bent)", "reagent": 1, "z-score, replicate 1": -0.2}
{"gene": "bt (bent)", "reagent": 2, "z-score, replicate 1": -0.2}

The list goes on:
How did the screen score Iris?
z-score, replicate 1: -0.3

For Reg-2 (Rhythmically expressed gene 2), how do the results read?
z-score, replicate 1: 0.1

How did the screen score Sou (Souji)?
z-score, replicate 1: -0.2

With CG30471, what does the deposit list?
z-score, replicate 1: -0.1

For CG12521, what does the deposit list?
z-score, replicate 1: -0.1

For CG7781, what was measured?
z-score, replicate 1: -0.2

For eg (eagle), what does the deposit list?
z-score, replicate 1: -0.2

For CG4793, what does the deposit list?
z-score, replicate 1: -0.2

How did the screen score spz (spatzle)?
z-score, replicate 1: -0.3

How did the screen score CG5715?
z-score, replicate 1: 0.2

With CG1275, what was measured?
z-score, replicate 1: -0.2
